{"source": "PubChem BioAssay AID720505 | Drosophila RNAi Screening Center – 2013", "aim": "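Genes needed for store-operated calcium entry in fly cells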 (primary screen)", "system": "Drosophila S2R+ cells", "reagent": "long dsRNA against Drosophila genes", "treatment": "thapsigargin (2 µM) in calcium-free buffer to empty internal stores, then 2 mM calcium added back", "read-out": "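Fluo-4 signal in 384-well plates read on a FLIPR after thapsigargin (2 µM, calcium-free) store depletion and 2 mM calcium add-back; unnormalised mean endpoint per well; screen run twice, selected wells retested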", "direction": "calcium signal: higher = more calcium entry after store depletion", "call rule": "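About 1500 genes called as lowering calcium entry, by varying amounts, judged against per-plate control wells with STIM1 as positive and Rho1 as negative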", "calls": "active = called as lowering calcium entry; inactive = not called", "note": "The screen tested about 20,000 reagents; shown is an unselected part of those with a known target gene and a result. In the full data, about 2,100 (10%) were called active. 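Raw plate signals without normalisation; calls rest on control-based scores that were not deposited; replicate 2 separates called from uncalled poorly.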 A number with no mark means an inactive call. Reagents against one gene are numbered here. A plus sign joins genes that one reagent is predicted to hit. Not given: the amount of reagent, the time to read-out."}
{"Gene": "Bro (GeneID 38202)", "reagent": 1, "calcium signal, replicate 1": 90.4, "calcium signal, replicate 2": 84.1}
{"Gene": "nuf (GeneID 39572)", "reagent": 1, "calcium signal, replicate 1": 64.1, "calcium signal, replicate 2": 184}
{"Gene": "nuf (GeneID 39572)", "reagent": 2, "calcium signal, replicate 1": 101, "calcium signal, replicate 2": 77.4}
{"Gene": "nuf (GeneID 39572)", "reagent": 3, "calcium signal, replicate 1": 98.6, "calcium signal, replicate 2": 107}
{"Gene": "row (GeneID 36685)", "reagent": 1, "calcium signal, replicate 1": 97.4, "calcium signal, replicate 2": 103}
{"Gene": "row (GeneID 36685)", "reagent": 2, "calcium signal, replicate 1": 104, "calcium signal, replicate 2": 154}
{"Gene": "VhaAC45 (GeneID 35944)", "reagent": 1, "calcium signal, replicate 1": 116, "calcium signal, replicate 2": 88.9}
{"Gene": "CG7420 (GeneID 33332)", "reagent": 1, "calcium signal, replicate 1": 129, "calcium signal, replicate 2": 228}
{"Gene": "CG30054 (GeneID 246420)", "reagent": 1, "calcium signal, replicate 1": 119, "calcium signal, replicate 2": 147}
{"Gene": "CG31345 (GeneID 41576)", "reagent": 1, "calcium signal, replicate 1": 176, "calcium signal, replicate 2": 73.5}
{"Gene": "CG31345 (GeneID 41576)", "reagent": 2, "calcium signal, replicate 1": 203, "calcium signal, replicate 2": 76.4}
{"Gene": "Polr1A (GeneID 36617)", "reagent": 1, "calcium signal, replicate 1": 127, "calcium signal, replicate 2": 115}
{"Gene": "OtopLc (GeneID 7354434)", "reagent": 1, "calcium signal, replicate 1": 164, "calcium signal, replicate 2": 140}
{"Gene": "OtopLc (GeneID 7354434)", "reagent": 2, "calcium signal, replicate 1": "65.7 (active)", "calcium signal, replicate 2": 229}
{"Gene": "OtopLc (GeneID 7354434)", "reagent": 3, "calcium signal, replicate 1": 179, "calcium signal, replicate 2": 109}
{"Gene": "Pus1 (GeneID 42440)", "reagent": 1, "calcium signal, replicate 1": 238, "calcium signal, replicate 2": 210}
{"Gene": "EndoGI (GeneID 34953)", "reagent": 1, "calcium signal, replicate 1": 98.7, "calcium signal, replicate 2": 88.7}
{"Gene": "Ugt37C2 (GeneID 53513)", "reagent": 1, "calcium signal, replicate 1": 121, "calcium signal, replicate 2": 93.9}
{"Gene": "Pal1 + Pdrg1", "reagent": 1, "calcium signal, replicate 1": 86.5, "calcium signal, replicate 2": 104}

An excerpt from above, limited to “calcium signal, replicate 2”:
OtopLc (GeneID 7354434) #2: 229 (active)
OtopLc (GeneID 7354434) #3: 109

Further results follow.
{"Gene": "Nf1 (GeneID 43149)", "reagent": 1, "calcium signal, replicate 1": 99.9, "calcium signal, replicate 2": 132}
{"Gene": "CG31917 + Tfb5", "reagent": 1, "calcium signal, replicate 1": 142, "calcium signal, replicate 2": 87.6}
{"Gene": "CG31917 + Tfb5", "reagent": 2, "calcium signal, replicate 1": 139, "calcium signal, replicate 2": 86.3}
{"Gene": "tobi (GeneID 43072)", "reagent": 1, "calcium signal, replicate 1": 287, "calcium signal, replicate 2": 113}
{"Gene": "alph (GeneID 43481)", "reagent": 1, "calcium signal, replicate 1": 101, "calcium signal, replicate 2": 102}
{"Gene": "CG17193 (GeneID 50044)", "reagent": 1, "calcium signal, replicate 1": 118, "calcium signal, replicate 2": 109}
{"Gene": "CG14424 (GeneID 31279)", "reagent": 1, "calcium signal, replicate 1": 108, "calcium signal, replicate 2": 139}
{"Gene": "CG10947 (GeneID 35309)", "reagent": 1, "calcium signal, replicate 1": 78.9, "calcium signal, replicate 2": 103}
{"Gene": "CG30015 (GeneID 36147)", "reagent": 1, "calcium signal, replicate 1": 60.4, "calcium signal, replicate 2": 119}
{"Gene": "CG30015 (GeneID 36147)", "reagent": 2, "calcium signal, replicate 1": 176, "calcium signal, replicate 2": 142}
{"Gene": "CG30015 (GeneID 36147)", "reagent": 3, "calcium signal, replicate 1": 141, "calcium signal, replicate 2": 161}
